According to patent publication US20250320303A1 (SHENGHE CHINA BIOPHARMACEUTICAL, published 2025):
No constants are given. Whether binding was seen depends on the method and setting. Some binding calls cover weakened binding; strength is not graded here.

By UniProt entry, the sequences of proteins in these tests, tags left out. Residues count along the entry.
UniProt P20333, residues 23-257: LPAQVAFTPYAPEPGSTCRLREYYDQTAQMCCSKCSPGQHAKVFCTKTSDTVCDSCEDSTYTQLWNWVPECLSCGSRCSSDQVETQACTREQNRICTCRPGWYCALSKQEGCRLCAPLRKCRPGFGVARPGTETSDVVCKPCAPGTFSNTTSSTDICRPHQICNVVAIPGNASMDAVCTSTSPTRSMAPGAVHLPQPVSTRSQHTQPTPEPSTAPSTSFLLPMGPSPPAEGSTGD

Molecular target: human W3785-hProl.ECD.His (Human-TNFR2-His) protein (human) (UniProt P20333)
Experiment: BLI (Octet Red96e), antibody on AHC sensor

binding: binds
B1: Antibody 28 (antibody, V domains shown)
VH: EVQLVQSGAEVKKPGATVKISCKVSGYSITDYLLHWVQQAPGKGLEWMGWIDPEDAKTKYGQKFQSRVTITADTSTDTAYMELSSLRSEDTAVYYCAANSATGTMDAWGQGTLVTVSS
VL: DIVMTQSPATLSVSPGERATLSCKASQNVGSNVDWYQQKPGQSPRVLIYKASIRYTGIPARFSGSGSGTEFTLTISILQSEDFAVYFCMQSKSYPITFGQGTKLEIK
notes: captured on AHC sensors
